Results reported in patent publication US20240116893A1, “Compounds for Disease Treatment” (Duke University, priority 2021, published 2024).
“Also recorded” adds a separate entry of the source. At least one structure is not confirmed: it was looked up by name or label, or the drawing left a doubt.

Protein sequences, listed by entry. Tags and fused reporters are not part of them.
UniProt Q9NWZ3, whole entry: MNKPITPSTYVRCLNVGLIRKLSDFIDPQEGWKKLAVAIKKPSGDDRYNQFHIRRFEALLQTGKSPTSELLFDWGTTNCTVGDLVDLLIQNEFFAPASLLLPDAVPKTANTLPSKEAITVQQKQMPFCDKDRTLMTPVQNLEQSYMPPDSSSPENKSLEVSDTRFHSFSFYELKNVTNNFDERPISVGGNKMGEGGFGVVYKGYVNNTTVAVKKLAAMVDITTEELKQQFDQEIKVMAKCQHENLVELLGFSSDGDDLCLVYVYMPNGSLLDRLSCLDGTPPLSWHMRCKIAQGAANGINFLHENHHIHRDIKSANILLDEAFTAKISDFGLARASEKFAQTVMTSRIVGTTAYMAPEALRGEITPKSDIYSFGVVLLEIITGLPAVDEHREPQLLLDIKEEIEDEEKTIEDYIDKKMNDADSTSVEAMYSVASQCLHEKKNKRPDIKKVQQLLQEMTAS

Experiments:
[1] = test system: murine bone marrow derived macrophages (BMDMs); type: cell-based; details: S1+S2 spike protein, 24 hours; FIG. 7
IRAK4 = IRAK4 (Homo sapiens (Human), UniProt Q9NWZ3); assay: IRAK4 kinase inhibition IC50 (TABLE 1; FIG. 1B selectivity screening); type: biochemical; details: selectivity for TAK1 over IRAK4

CCCn1/c(=N/C(=O)c2cccc(C(N)=O)c2)[nH]c2ccc(CN3CCCCC3)cc21 [Compound 5]
S-protein mediated TNF expression / secretion [1]: blocked; also recorded: attenuate
Ratio IC50 (IRAK4)/IC50 (TAK1) (IRAK4): 1000
